Several values for one entry are separate records, joined by “and”; a condition that tells them apart may be missing. Identical values can stand only once. ± gives the standard deviation of the averaged measurements. Over roughly 3,800 compounds, “cell shape (eccentricity) Z-score vs DMSO control” has its median near 1.1; the lowest 2% begin near -4.7. This is one part of the list.

In the assay the test system is human monocyte-derived macrophages (M0). The experiment in a line: cell shape (eccentricity) Z-score vs DMSO control; higher = more elongated, M2-like morphology. Particulars: 20 µM; 24 h; macrophage state: M0 (M-CSF).
`CC(=N)NCc1cccc(CN)c1`: the “cell shape (Z-score)” value was found to be 0.873.
On to `NS(=O)(=O)Cc1noc2ccccc12`, for which the “cell shape (Z-score)” value turned out to be 2.34.
With `COc1ccccc1N1CCN(CCCCNC(=O)c2ccc(-c3ccc(C(C)=O)cc3)cc2)CC1` the figure was 1.7; with `Cc1ccc(C(=O)Nc2ccc(S(=O)(=O)O)c3cc(S(=O)(=O)O)cc(S(=O)(=O)O)c23)cc1NC(=O)c1cccc(NC(=O)Nc2cccc(C(=O)Nc3cc(C(=O)Nc4ccc(S(=O)(=O)O)c5cc(S(=O)(=O)O)cc(S(=O)(=O)O)c45)ccc3C)c2)c1`, 11.2; with `Cc1ccc2c(c1)c1c3n2CCNC3CCC1` (configuration not stated), 3.56.
To `COc1cc(C2c3c(cc(OC)c(O)c3OC)CC(CO[C@@H]3O[C@H](CO)[C@@H](O)[C@H](O)[C@H]3O)C2CO)cc(OC)c1O` (some centres not stated) belongs 0.246.
To `Cc1c(S(=O)(=O)O)oc2c1C(=O)C(=O)c1c-2ccc2c1CCCC2(C)C` belongs 1.31.
Take `COc1ccc2cc1Oc1ccc(cc1)C[C@H]1c3cc(c(OC)cc3CCN1C)Oc1c(OC)c(OC)cc3c1[C@H](C2)N(C)CC3`: the “cell shape (Z-score)” value was found to be 1.85.
With `Cc1ccc(S(=O)(=O)NC(=O)NN2CCCCCC2)cc1` the figure was 0.243.
As to `CCCCNCC1COc2ccccc2O1` (configuration not stated), the “cell shape (Z-score)” value was 2.88.
To `ClC(=Cn1cncn1)c1ccc(Cl)cc1Cl` belongs 2.1.
With `Cc1cccc(-c2nn3c(c2-c2ccnc4ccc(C(N)=O)cc24)CCC3)n1` the figure was 1.89; with `c1cc2c(cc1C1CCCCC1)c1c3n2CCNC3CCC1` (configuration not stated), -2.39; with `CCCn1c(=O)[nH]c2nc(-c3ccc(S(=O)(=O)O)cc3)[nH]c2c1=O`, 1.75.
With `Oc1cccc2c(O)nccc12` the figure was 0.28; with `CC[N+](CC)(CC(=O)Nc1c(C)cccc1C)Cc1ccccc1`, 1.74; with `COc1cc(NS(=O)(=O)c2ccc(N)cc2)nc(OC)n1`, -1.68.
`COc1cc2ccc(=O)oc2cc1O`: the “cell shape (Z-score)” value is -0.253.
To `CC(=O)Oc1ccc2c(c1C(C)C)CCC1C(C)(C)CCC[C@]21C` (some centres not stated) belongs 4.36.
To `COc1cc(C(C)C)c2c(c1)S(=O)(=O)N(COc1cc(=O)n3cccc(OCCN4CCCCC4)c3n1)C2=O` belongs -0.675.
With `OC(CN1CCN(c2cccc(Cl)c2)CC1)C(c1ccccc1)c1ccccc1` (configuration not stated) the figure was 1.49; with `Clc1cccc(Nc2nnc(-c3ccccc3)c3ccccc23)c1`, 0.91.
For `O=C(O[C@@H]1Cc2c(O)cc(O)cc2O[C@@H]1c1cc(O)c(O)c(O)c1)c1cc(O)c(O)c(O)c1`, the “cell shape (Z-score)” value is 7.36.
To `Cn1c(=O)c2c(n(C)c1=O)n(C)c(=O)n2C` belongs 0.458; to `CC(C)c1nc(N(C)S(C)(=O)=O)nc(-c2ccc(F)cc2)c1/C=C/[C@@H](O)C[C@@H](O)CC(=O)O`, 2.64; to `CC(C)c1ccccc1Cc1cc(C(=O)Nc2ccc(S(=O)(=O)c3ccccc3C(C)(C)C)cc2)c(O)c(O)c1O`, 13.4.
In the case of `Cc1cccc(Nc2cc(Cl)nc(SCC(=O)O)n2)c1C`, the “cell shape (Z-score)” value was -1.88.
To `COc1cc2oc3cc(OC)c(OC)c(CC=C(C)C)c3c(=O)c2c(O)c1CC=C(C)C` belongs 1.19.
With `COc1ccc(-c2oc3cc(OC)c(OC)c(OC)c3c(=O)c2OC)cc1` the figure was 2.61.
With `CC(=O)N=c1sc(S(N)(=O)=O)nn1C` the figure was 1.52; with `COc1c(N2CCNC(C)C2)c(F)cc2c(=O)c(C(=O)O)cn(C3CC3)c12` (configuration not stated), 2.4; with `C/C=C(/C)C(=O)O[C@H]1C=C(C)C[C@H](OC(=O)c2ccc(O)cc2)C2[C@](O)(C(C)C)CC[C@@]21C` (some centres not stated), -3.37.
`O=C1CC(c2ccc(O)c(O)c2)Oc2cc(O)ccc21` (configuration not stated): the “cell shape (Z-score)” value was 3.13.
With `O=C(O)c1c(Sc2ccccc2)c2cc(Cl)ccc2n1Cc1ccc(Cl)cc1` the figure was 0.705.
With `CCN1CCC(CNC(=O)c2cc(S(N)(=O)=O)ccc2OC)C1` (configuration not stated) the figure was 4.95; with `Cc1nc2ccc(NC(=O)Nc3ccnc4cccnc34)cc2o1`, 2.05.
To `CC(=O)CCCCCCCc1[nH]c2ccccc2c(=O)c1O[C@@H]1O[C@H](CO)[C@@H](O)[C@H](O)[C@H]1O` belongs 1.25; to `CCCCNc1ccc(C(=O)OCCN(C)C)cc1`, -0.157.
`C=CC1(C)C=C2CCC3C(C)(C)C(O[C@@H]4O[C@@H](CO)[C@H](O)[C@H]4O)CCC3(C)C2CC1O[C@@H]1O[C@H](C)[C@@H](OC)[C@H](O)[C@H]1O` (some centres not stated): the “cell shape (Z-score)” value was 1.89.
To `COc1cc2c(c(OC)c1OC)-c1cc3c(cc1C[C@H]1C(=O)OC[C@@H]1C2)OCO3` belongs 0.816.
With `O=Cc1ccccc1O[C@@H]1O[C@H](CO)[C@H](O)[C@@H](O)[C@H]1O` the figure was -0.838; with `O=C1[O][Pt][O]C(=O)C12CCC2`, 1.87 and 2.
With `Cc1cc(O)c(Cc2c(O)cc(C)c(C=O)c2O)c(O)c1C` the figure was -1.37; with `COC(=O)C1=C(C)NC(C)=C(C(=O)OCCCN2CCC(c3ccccc3)(c3ccccc3)CC2)[C@@H]1c1cccc([N+](=O)[O-])c1`, 2.69; with `Cc1ccc(S(=O)(=O)NCc2ccccc2)cc1`, 2.12.
`Cc1cc(F)c(Nc2ncnc3cc(OCc4ccccc4)ccc23)cc1O`: the “cell shape (Z-score)” value is 4.02.
With `O=C(OC1OC(CO)C(O)C(O)C1O)c1c(O)cc(O)cc1/C=C/c1ccccc1` (configuration not stated) the figure was -0.0388.
With `N=C(N)NC(=O)Cc1c(Cl)cccc1Cl` the figure was -2.15.
Turning to `Cc1nc2c(O)cccc2c(=O)[nH]1`, the “cell shape (Z-score)” value came out at 2.74.
With `CC(C)NC(=N)NC(=N)Nc1ccc(Cl)cc1` the figure was 0.874; with `O=C(/C=C/c1ccc(O)cc1)O[C@@H]1CC(O)(C(=O)O)C[C@@H](OC(=O)/C=C/c2ccc(O)cc2)C1O` (some centres not stated), 1.02.
In the case of `Cc1nccn1CC1CCC2C(C1=O)c1ccccc1N2C` (configuration not stated), the “cell shape (Z-score)” value was 3.91.
To `CC[C@H](C)C(=O)O[C@H]1C[C@H](O)C=C2C=C[C@H](C)[C@H](CC[C@@H](O)C[C@@H](O)CC(=O)O)[C@H]21` belongs -0.136 ± 1.9.
To `O=C(CCc1ccccc1)c1c(O)cc(O)cc1O` belongs 0.3; to `COC(=O)C1=C(C)NC(C)=C(C(=O)OCCCN2CCC(c3ccccc3)(c3ccccc3)CC2)[C@H]1c1cccc([N+](=O)[O-])c1`, 1.82.
To `C=C(C)C1CC=C(CO)CC1` (configuration not stated) belongs 0.825; to `CC(CC(N)=O)OC(=O)c1cc(Cl)cc(O)c1O` (configuration not stated), 0.335; to `Oc1ccc([C@@H]2Oc3cc(O)cc(O)c3C[C@@H]2O)cc1`, 0.853.
Turning to `CON=C(C(=O)N[C@@H]1C(=O)N2C(C(=O)OCOC(=O)C(C)(C)C)=C(C=Cc3scnc3C)CS[C@H]12)c1csc(N)n1`, the “cell shape (Z-score)” value was -0.797.
With `O=C1NC(=O)/C(=C/c2ccc3nccc(-c4ccncc4)c3c2)S1` the figure was -3.86; with `C=C1C(=O)O[C@H]2C1CCC(C)=C1C(=O)C=C(C)[C@@H]12` (some centres not stated), -3.7.
To `CCCCCCCCNC(C)C(O)c1ccc(SC(C)C)cc1` (configuration not stated) belongs -1.8.
With `COc1cc(CCC(O)CC(O)CCc2ccc(O)c(O)c2)ccc1O` (configuration not stated), the “cell shape (Z-score)” value amounted to 0.343.
Take `O=c1oc2cc(O)ccc2c2oc3cc(O)ccc3c12`: the “cell shape (Z-score)” value came out at 2.46.
For the compound `Nc1nc2c(cnn2CCc2ccccc2)c2nc(-c3ccco3)nn12`, the “cell shape (Z-score)” value is -0.0713.
With `CC1=CC(=O)C2C(C)(C)CCC[C@]2(C)[C@@]1(O)CCc1ccoc1` (some centres not stated) the figure was -0.0485; with `CN(C)CCCN1c2ccccc2CCc2ccccc21`, 2.02.
To `COc1ccc2c(c1)OCC(Cc1ccc(OC)c(OC)c1)C2=O` (configuration not stated) belongs 2.38; to `Cc1cc(O)cc(=O)o1`, 5.41; to `NS(=O)(=O)c1cc(C2(O)NC(=O)c3ccccc32)ccc1Cl` (configuration not stated), 2.
To `CCCS(=O)(=O)Nc1ccc(F)c(C(=O)c2c[nH]c3ncc(Cl)cc23)c1F` belongs 0.727; to `C=C1C(=O)C23CC(O)C4C(C)(C(=O)OC5OC(CO)C(O)C(O)C5O)CCCC4(C)C2=CCC1(O)C3` (configuration not stated), -0.91; to `COc1cc(C2OCC3C(c4cc(OC)c5c(c4)OCO5)OCC23)cc(OC)c1OC` (configuration not stated), -2.6.
With `CC(C)c1ccc2c(c1)C(O)CC1C(C)(CO)CCCC21C` (configuration not stated), the “cell shape (Z-score)” value is 0.912.
With `Nc1cccc(S(=O)(=O)N2CCCN(S(=O)(=O)c3ccc4c(c3)OCCO4)CC2)c1` the figure was 2.48; with `S=P(N1CC1)(N1CC1)N1CC1`, -2.23.
With `CCCCCCCCCCCCCCCC(=O)C1C(=O)OC(CO)C1=O` (configuration not stated) the figure was 3.45; with `CCCCOc1ccc(OCCCN2CCOCC2)cc1`, -1.54; with `C=C1C[C@@H]2COC(=O)[C@]2(Cc2ccc3ccccc3c2)C1`, 0.832.
With `CCCOc1ccc2nc(NC(=O)OC)[nH]c2c1` the figure was 2.27; with `N=C(N)NC(=N)Nc1ccccc1`, 1.72; with `CN(C)CCCc1cc(C(=O)Nc2ccc(-c3ccncc3)cc2)ccc1O`, 1.65.
On to `C=CC[C@]12C[C@@H](OC)C(=O)C(OC)=C1O[C@@H](c1cc(OC)c3c(c1)OCO3)[C@@H]2C`, for which the “cell shape (Z-score)” value was 1.59.
To `O=C(/C=C/c1ccc(C(=O)N/N=C/c2ccc(O)c(O)c2O)cc1)NO` belongs 6.26; to `CC(C)=CCCC(C)(O)C(O)Cc1cc(C(=O)O)cc(CC=C(C)C)c1O` (configuration not stated), -0.439.
With `COc1ccccc1OCCNCC(O)COc1cccc2[nH]c3ccccc3c12` (configuration not stated) the figure was 1.31.
Regarding `CC1OC(Oc2cc(O)c3c(=O)cc(-c4ccc(O)cc4)oc3c2C2OC(CO)C(O)C(O)C2O)C(O)C(O)C1O` (configuration not stated), the “cell shape (Z-score)” value came to 0.904.
To `c1ccc2c(c1)CN1CCCC1=N2` belongs -3.56.
Regarding `COc1ccc(C(C)=O)c(O)c1`, the “cell shape (Z-score)” value is -2.74.
To `COc1ccc(CCCOC(Cn2ccnc2)c2ccc(OC)cc2)cc1` (configuration not stated) belongs -2.89.
To `COc1c(CCC(=O)O)c(O[C@@H]2O[C@H](CO)[C@@H](O)[C@H](O)[C@H]2O)cc2occc12` belongs 1.58 ± 2.6; to `CC1=C[C@@H](O)[C@H]2C(C)(C)CCC[C@]2(C)[C@@]1(O)CO`, 0.732.
`COC(=O)NC(C(=O)N[C@@H](Cc1ccccc1)C(O)CN(Cc1ccc(-c2ccccn2)cc1)NC(=O)C(NC(=O)OC)C(C)(C)C)C(C)(C)C` (some centres not stated): the “cell shape (Z-score)” value turned out to be 2.43.
With `Cc1ccc(Sc2cncc3sc(C(N)=O)cc23)cc1` the figure was -1.04.
With `CC(=O)O[C@@H]1[C@@H](O)[C@H](C)O[C@@H](O[C@H]2[C@@H]3C=CO[C@@H](O[C@@H]4O[C@H](CO)[C@@H](O)[C@H](O)[C@H]4O)[C@@H]3[C@@]3(CO)O[C@@H]23)[C@@H]1OC(=O)/C=C/c1ccc(O)cc1` the figure was -0.936 ± 2.8; with `C=CC1C(OC2OC(CO)C(O)C(O)C2O)OC=C(C(=O)OC)C1CC1CC(=O)CC(CC(=O)CCc2ccc(O)cc2)O1` (configuration not stated), -0.527 ± 1.2; with `C=C[C@](C)(O)CC[C@H]1C(C)=CC(=O)[C@H]2C(C)(C)CCC[C@]12C`, -0.256.

For the origin of these results see the supplement of paper PMC7858590.
